This note sets out measurements from patent publication US20100036088A1, “Selective poly-N-substituted glycine antibiotics” (priority 2008, published 2010).

Common to all, as to assay type: cell-based
Data set [1] has as its system Klebsiella pneumoniae ATCC 33495. Conditions: Table 7B; 10% hemolytic dose / MIC. The method, then: (§1) Antibacterial assays. MICs were determined according to CLSI M7-A6 protocols in a 96-well microtiter plate. In test wells, 50 μL bacterial inoculum (5×10^5 CFU/ml) in Mueller-Hinton broth (MHB) was added to 50 μL peptoid solution in MHB (prepared by 1:2 serial dilutions). Positive controls contained 50 μL inoculum and 50 μL MHB without peptoid. […] MIC values reported were reproducible between three independent experimental replicates, each consisting of two parallel trials. Broad-spectrum antimicrobial susceptibility testing was performed against BSL2 pathogens by Nova Biologicals, Inc. (Conroe, Tex.).
(§2) Broad-spectrum antibacterial assays. MICs of compounds were determined by microdilution procedure in Mueller-Hinton broth (MHB) in accordance with CLSI M7-A6 protocols in a manner similar to that described for the screen antibacterial assays. Inoculated microtiter plates were incubated at 35° C. for 24 hours prior to the result being recorded. Four ATCC strains that were used as standards are recommended by CLSI: Pseudomonas aeruginosa ATCC 27853, Escherichia coli ATCC 25922, Staphylococcus aureus ATCC 29213 and Enterococcus faecalis ATCC 29212. Other strains from the ATCC collection include Proteus vulgaris ATCC 49132, Proteus mirabilis ATCC 35659, Klebsiella pneumoniae ATCC 33495, Enterobacter aerogenes ATCC 35029 and Serratia marcescens ATCC 13880. S. aureus NRS100 (COL) is a well characterized methicillian-resistant S. aureus (MRSA) strain. The strains S. aureus VAN1 and S. aureus VAN2, vancomycin-resistant MRSA strains that were isolated in Michigan and Pennsylvania, were the first vancomycin-resistant strains clinically isolated. S. aureus NRS119 and S. aureus NRS120 are linezolid-resistant isolates from the Network on Antimicrobial Resistance in S. aureus (NARSA) collection. E. faecalis 99 and E. faecium 106 are vancomycin-resistant enterococcal strains.

Data set [2] concerns Enterococcus faecium 106. Conditions: Table 7B; 10% hemolytic dose / MIC. The method, then: as §1, §2
The subject of data set [3] is Enterococcus faecalis ATCC 29212. Conditions: Table 7B; 10% hemolytic dose / MIC. The method, then: as §1, §2
Data set [4] concerns Staphylococcus aureus VAN1. The following applies: Table 7B; 10% hemolytic dose / MIC. The method, then:
as §1, §2

Data set [5] has as its system Staphylococcus aureus NRS120. Conditions: Table 7B; 10% hemolytic dose / MIC. The method, then:
as §1, §2

For data set [6], the system named is Serratia marcescens ATCC 13880. The following applies: Table 7B; 10% hemolytic dose / MIC. The method, then: as §1, §2
Data set [7] relates to Escherichia coli ATCC 25922. The following applies: Table 7B; 10% hemolytic dose / MIC. The method, then: as §1, §2
In data set [8] the test system is Staphylococcus aureus NRS100 (COL). Conditions: Table 7B; 10% hemolytic dose / MIC. The method, then:
as §1, §2

Data set [9] relates to Staphylococcus aureus ATCC 29213. The following applies: Table 7B; 10% hemolytic dose / MIC. The method, then: as §1, §2
In data set [10] the test system is Staphylococcus aureus NRS119. Conditions: Table 7B; 10% hemolytic dose / MIC. The method, then:
as §1, §2

Data set [11] deals with Proteus vulgaris ATCC 49132. The following applies: Table 7B; 10% hemolytic dose / MIC. The method, then: as §1, §2
The subject of data set [12] is Pseudomonas aeruginosa ATCC 27853. The following applies: Table 7B; 10% hemolytic dose / MIC. The method, then: as §1, §2
Data set [13] relates to Enterobacter aerogenes ATCC 35029. Conditions: Table 7B; 10% hemolytic dose / MIC. The method, then: as §1, §2
The subject of data set [14] is Staphylococcus aureus VAN2. The following applies: Table 7B; 10% hemolytic dose / MIC. The method, then: as §1, §2
In data set [15] the test system is Enterococcus faecalis 99. Conditions: Table 7B; 10% hemolytic dose / MIC. The method, then:
as §1, §2

The subject of data set [16] is Proteus mirabilis ATCC 35659. The following applies: Table 7B; 10% hemolytic dose / MIC. The method, then:
as §1, §2

Data set [17] relates to E. coli (ATCC 35218). Conditions: Table 6, 10% hemolytic dose / MIC E. coli. The method, then:
(§3) Whereas the preceding generation of molecules was designed to elucidate structure function relationships of specific molecular parameters (chirality, length, hydrophobicity, etc.), another generation compounds were designed explicitly to explore effects on selectivity. Antimicrobial activity of these compounds was tested against bacterial strains E. coli (ATTC 35218) and B. subtilis (ATTC 6633) in cation-adjusted MHB using the microdilution protocols previously described. The sequences, antimicrobial activities, hemolytic activities, and metabolic inhibitory concentrations against NIH 3T3 mouse fibroblast cells are summarized in Table 3 and the rationale of their design is described below.
(§4) The potencies of all compounds were determined against representative Gram-negative (E. coli ATCC 35218) and Gram-positive (B. subtilis ATCC 6633) biosafety level 1 (BSL1) organisms. In addition to hemolytic activity, the conventional measure of toxicity to mammalian cells, the effect of each ampetoid on NIH 3T3 mouse fibroblast cells was determined using the MTS tetrazolium salt-based calorimetric assay. While hemolysis measures the degree to which erythrocytes are lysed, the MTS assay indirectly quantifies the extent to which cellular metabolic activity is inhibited.
(§5) Screening antibacterial assays. MICs were determined in 96-well microtiter plates in accordance with CLSI M7-A6 protocols. Peptoid solutions with 50 μL total volume were prepared using 2:1 serial dilutions. 50 μL of bacteria inoculum (1×10^6 CFU/mL) prepared in cation-adjusted Mueller-Hinton broth (CAMHB) was added to test wells. Control wells contained 100 μL MHB (no growth) or 50 μL inoculums with 50 μL MHB with no peptoid. […] Reported values were reproducible over three experiments, each containing two parallel trials.

The subject of data set [18] is B. subtilis (ATCC 6633). The following applies: Table 6; 10% hemolytic dose / MIC B. subtilis. The method, then: as §3, §4, §5
For data set [19], the system named is E. coli JM109. The following applies: Table 1. The source says: An initial set of 15 ampetoid analogs was synthesized to determine whether peptoids are affected by structural and sequence modifications in a manner consistent with AMP activities. The designs for ampetoids in this library were derived from two antibacterial and selective amphipathic dodecamers, 1 and 2. Peptoid 1 [H-(Nlys-Nspe-Nspe)4—NH2] is composed of 2/3 Nspe, the peptoid analog of phenylalanine, and 1/3 Nlys, the peptoid analog of lysine (see FIG. 1 for the structures of representative peptoid monomers and corresponding N-substituents). Peptoid 2 [H-(Nlys-Nssb-Nspe)4—NH2] contains 1/3 isoleucine-like Nssb monomers in place of Nspe. The variant sequences were designed to effect changes in chirality, length, hydrophobicity, charge, and amphipathicity. All of these compounds were tested for antibacterial activity against representative BSL1 Gram-negative (E. coli JM109) and Gram-positive (B. subtilis BR151) bacterial strains. As an initial measure of selectivity, the lytic activity of the peptoids was determined against human erythrocytes. Table 1 summarizes the sequences synthesized, the solvent composition at RP-HPLC elution as a relative measure of molecular hydrophobicity, and antibacterial and hemolytic activities.
Antibacterial assays. MICs were determined according to CLSI M7-A6 protocols in a 96-well microtiter plate. […]

Values joined by “and” are separate entries in the source; they are usually repeats but may differ in a detail not shown here. Equal entries are not always repeated. Where two headings read alike, the source gives them in different places. Numbered stars: 1 amine (or outer) side, 2 acyl side, 3 side chain; on linkers, the order of the positions; unused ones are H or OH. Square brackets hold non-standard residues; d marks the D form. Peptide text beside a SMILES is read from it. X1 = CC(C)[C@H](C)N(CC(=O)[*:2])[*:1]; X2 = CCC[C@H](C)N(CC(=O)[*:2])[*:1]; Nspe = C[C@H](NCC(=O)O)c1ccccc1; Nphe = O=C(O)CNCc1ccccc1; Nlys = NCCCCNCC(=O)O

`CC(C)[C@H](C)N(CC(=O)N(CC(=O)N(CCCCN)CC(=O)N(CC(=O)N(CC(=O)N(CCCCN)CC(=O)N(CC(=O)N(CC(=O)N(CCCCN)CC(=O)N(CC(=O)N(CC(N)=O)[C@@H](C)c1ccccc1)[C@@H](C)C(C)C)[C@@H](C)c1ccccc1)[C@@H](C)C(C)C)[C@@H](C)c1ccccc1)[C@@H](C)C(C)C)[C@@H](C)c1ccccc1)C(=O)CNCCCCN` [1-Nsdp2,5,8,11, H-(Nlys-Nsdp-Nspe)4-NH2] (H-[Nlys][X1][Nspe][Nlys][X1][Nspe][Nlys][X1][Nspe][Nlys][X1][Nspe]-NH2): the “Selectivity ratio (SR) K. pneumoniae ATCC 33495” value in [1] worked out at 23. For the same compound, the “Selectivity ratio (SR) E. faecium 106” value in data set [2] turned out to be 46. For the same compound, in data set [3], the “Selectivity ratio (SR) E. faecalis ATCC 29212” value is listed as 23. Further, the “Selectivity ratio (SR) S. aureus VAN1” value in data set [4] was 23. For the same compound, the “Selectivity ratio (SR) S. aureus NRS120” value in [5] amounted to 23. In addition, the “Selectivity ratio (SR) S. marcescens ATCC 13880” value in [6] is given as under 1.5. Moreover, the “Selectivity ratio (SR) E. coli ATCC 25922” value in [7] is 23. Moreover, the “Selectivity ratio (SR) S. aureus NRS100 (COL)” value in data set [8] came out at 23. Moreover, in data set [9], the “Selectivity ratio (SR) S. aureus ATCC 29213” value is reported as 23. Moreover, the “Selectivity ratio (SR) S. aureus NRS119” value in data set [10] is on record as 12. The “Selectivity ratio (SR) P. vulgaris ATCC 49132” value in data set [11] is given as 5.8. In data set [12], the “Selectivity ratio (SR) P. aeruginosa ATCC 27853” value was found to be 12. Besides, in data set [13], the “Selectivity ratio (SR) E. aerogenes ATCC 35029” value is on record as 5.8. Besides, in [14], the “Selectivity ratio (SR) S. aureus VAN2” value stood at 23. In addition, in data set [15], the “Selectivity ratio (SR) E. faecalis 99” value was determined as 2.9. Besides, in data set [16], the “Selectivity ratio (SR) P. mirabilis ATCC 35659” value was under 1.5. The “Selectivity ratio SRE. coli” value in [17] is given as over 9.7; in data set [17] (listed as 1-Nspd2,5,8,11), 9.7. For the same compound, the “Selectivity ratio SRB. subtilis” value in data set [18] was 142.
Turning to `NCCCCNCC(=O)N(CC(=O)N(CC(=O)N(CCCCN)CC(=O)N(CC(=O)N(CC(=O)N(CCCCN)CC(=O)N(CC(=O)N(CC(=O)N(CCCCN)CC(=O)N(CC(=O)N(CC(N)=O)Cc1ccccc1)Cc1ccccc1)Cc1ccccc1)Cc1ccccc1)Cc1ccccc1)Cc1ccccc1)Cc1ccccc1)Cc1ccccc1` [1achiral, H-(Nlys-Npm-Npm)4-NH2] (H-[Nlys][Nphe][Nphe][Nlys][Nphe][Nphe][Nlys][Nphe][Nphe][Nlys][Nphe][Nphe]-NH2), the “Selectivity ratio (SR) K. pneumoniae ATCC 33495” value in [1] worked out at 39. In addition, the “Selectivity ratio (SR) E. faecium 106” value in [2] was 79. Besides, in data set [3], the “Selectivity ratio (SR) E. faecalis ATCC 29212” value is on record as 19. Also, the “Selectivity ratio (SR) S. aureus VAN1” value in data set [4] came out at 39. Further, the “Selectivity ratio (SR) S. aureus NRS120” value in data set [5] turned out to be 19. In addition, the “Selectivity ratio (SR) S. marcescens ATCC 13880” value in data set [6] amounted to 2.4. Also, the “Selectivity ratio (SR) E. coli ATCC 25922” value in data set [7] is recorded as 19. Moreover, the “Selectivity ratio (SR) S. aureus NRS100 (COL)” value in data set [8] worked out at 39. Moreover, the “Selectivity ratio (SR) S. aureus ATCC 29213” value in [9] came to 39. Further, in [10], the “Selectivity ratio (SR) S. aureus NRS119” value was determined as 19. Further, the “Selectivity ratio (SR) P. vulgaris ATCC 49132” value in [11] stood at 9.8. Besides, the “Selectivity ratio (SR) P. aeruginosa ATCC 27853” value in [12] was determined as 19. Besides, the “Selectivity ratio (SR) E. aerogenes ATCC 35029” value in data set [13] worked out at 2.4. For the same compound, in data set [14], the “Selectivity ratio (SR) S. aureus VAN2” value is recorded as 39. In [15], the “Selectivity ratio (SR) E. faecalis 99” value amounted to 4.9. For the same compound, the “Selectivity ratio (SR) P. mirabilis ATCC 35659” value in data set [16] was under 2.4. Moreover, the “Selectivity ratio SRE. coli” value in [17] is 15. In addition, the “Selectivity ratio SRB. subtilis” value in [18] is on record as 235.
Consider `CCC[C@H](C)N(CC(=O)N(CC(N)=O)[C@@H](C)c1ccccc1)C(=O)CN(CCCCN)C(=O)CN(C(=O)CN(C(=O)CN(CCCCN)C(=O)CN(C(=O)CN(C(=O)CN(CCCCN)C(=O)CN(C(=O)CN(C(=O)CNCCCCN)[C@@H](C)CCC)[C@@H](C)c1ccccc1)[C@@H](C)CCC)[C@@H](C)c1ccccc1)[C@@H](C)CCC)[C@@H](C)c1ccccc1` [2-Nsap2,5,8,11] (H-[Nlys][X2][Nspe][Nlys][X2][Nspe][Nlys][X2][Nspe][Nlys][X2][Nspe]-NH2), for which the “Selectivity ratio, SR = (HD10)/(E. coli MIC)” value in [19] is 16 and >16.
Regarding `CC(C)[C@H](C)N(CC(N)=O)C(=O)CN(C(=O)CN(CCCCN)C(=O)CN(C(=O)CN(C(=O)CN(CCCCN)C(=O)CN(C(=O)CN(C(=O)CN(CCCCN)C(=O)CN(C(=O)CN(C(=O)CNCCCCN)[C@@H](C)C(C)C)[C@@H](C)C(C)C)[C@@H](C)C(C)C)[C@@H](C)C(C)C)[C@@H](C)C(C)C)[C@@H](C)C(C)C)[C@@H](C)C(C)C` [1-Nsdpall, H-(Nlys-Nsdp-Nsdp)4-NH2], the “Selectivity ratio SRE. coli” value in [17] is given as over 8. Moreover, in data set [18], the “Selectivity ratio SRB. subtilis” value came to 256.
